No constants are given. Whether binding was seen depends on the method and setting. In cells and extracts the contact can be indirect. Some entries that bind do so weakly or less than the wild type.

Chains of the proteins cited; added tags and fusions are not shown.
UniProt Q8N9U0: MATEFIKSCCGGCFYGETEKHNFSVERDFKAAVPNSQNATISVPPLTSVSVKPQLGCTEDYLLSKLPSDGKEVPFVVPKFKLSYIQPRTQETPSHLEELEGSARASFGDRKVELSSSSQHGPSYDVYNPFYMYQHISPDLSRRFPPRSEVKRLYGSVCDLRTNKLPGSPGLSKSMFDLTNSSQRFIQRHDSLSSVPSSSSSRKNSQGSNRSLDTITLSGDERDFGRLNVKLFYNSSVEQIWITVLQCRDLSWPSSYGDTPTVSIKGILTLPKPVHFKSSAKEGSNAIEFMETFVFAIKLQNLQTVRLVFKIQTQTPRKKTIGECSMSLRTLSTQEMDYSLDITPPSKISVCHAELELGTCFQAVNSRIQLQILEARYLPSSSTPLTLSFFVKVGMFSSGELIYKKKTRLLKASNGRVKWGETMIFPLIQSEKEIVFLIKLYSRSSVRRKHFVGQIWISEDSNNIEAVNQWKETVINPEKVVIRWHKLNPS

Assay [1] concerns the target Flag-tagged wild-type full-length TC2N (Tac2-N) (human) (UniProt Q8N9U0). The assay can be described thus: co-IP; lysates of A549 vector control or TC2N cells precipitated with anti-Flag antibody (normal IgG as negative control), Pierce Co-IP Kit, western blot.
The target of assay [2] is p53, endogenous in H460 cells (wild-type p53) (human (endogenous in H460)) (UniProt P04637). The assay can be described thus: co-IP; lysates of H460 negative control or TC2N shRNA cells treated with 20 µM MG132 for 24 h, precipitated with anti-p53 antibody, Pierce Co-IP Kit, western blot. In general terms: A western blot detects proteins with antibodies after separation by electrophoresis.

As to “p53, endogenous in A549 cells (from UniProt P04637 1-393)”, the binding result in assay [1] is reported as “binds”.
As to “cyclin-dependent kinase 5 (Cdk5), endogenous in H460 cells (from UniProt Q00535 1-292) (enzyme)”, the binding result in assay [2] was “binds”.
